Drawing on publication doi:10.1101/2021.12.31.471205, this text covers binding for one substance.

The chains behind the UniProt entries cited, without tags or fusion partners. Where a name states a change or a piece, a line headed by the entry shows the natural chain unless it says otherwise. A line that says so, or that is headed by a name, gives the form on record, which may keep a tag or linker.
UniProt P55771: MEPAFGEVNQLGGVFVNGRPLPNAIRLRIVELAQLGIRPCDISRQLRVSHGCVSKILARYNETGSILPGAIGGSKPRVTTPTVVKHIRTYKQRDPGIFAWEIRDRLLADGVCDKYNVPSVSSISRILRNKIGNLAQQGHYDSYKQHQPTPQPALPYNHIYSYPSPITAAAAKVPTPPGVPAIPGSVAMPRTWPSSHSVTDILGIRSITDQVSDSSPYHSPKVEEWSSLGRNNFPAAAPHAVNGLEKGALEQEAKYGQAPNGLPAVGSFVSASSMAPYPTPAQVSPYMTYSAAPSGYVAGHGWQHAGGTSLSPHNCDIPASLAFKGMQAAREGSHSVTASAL
GST-PAX9 mutant (p.Cys112Trp, c.336C>G) (P55771, form named): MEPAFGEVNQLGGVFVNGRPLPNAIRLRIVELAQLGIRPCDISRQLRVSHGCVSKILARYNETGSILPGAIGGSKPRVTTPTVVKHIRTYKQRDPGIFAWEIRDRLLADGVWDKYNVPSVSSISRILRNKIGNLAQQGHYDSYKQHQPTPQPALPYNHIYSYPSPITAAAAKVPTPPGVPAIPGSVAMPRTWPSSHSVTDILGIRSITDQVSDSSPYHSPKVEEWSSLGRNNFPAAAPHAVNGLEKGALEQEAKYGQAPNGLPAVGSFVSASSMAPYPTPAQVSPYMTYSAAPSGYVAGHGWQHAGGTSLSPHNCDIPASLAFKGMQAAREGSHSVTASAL
UniProt P28360: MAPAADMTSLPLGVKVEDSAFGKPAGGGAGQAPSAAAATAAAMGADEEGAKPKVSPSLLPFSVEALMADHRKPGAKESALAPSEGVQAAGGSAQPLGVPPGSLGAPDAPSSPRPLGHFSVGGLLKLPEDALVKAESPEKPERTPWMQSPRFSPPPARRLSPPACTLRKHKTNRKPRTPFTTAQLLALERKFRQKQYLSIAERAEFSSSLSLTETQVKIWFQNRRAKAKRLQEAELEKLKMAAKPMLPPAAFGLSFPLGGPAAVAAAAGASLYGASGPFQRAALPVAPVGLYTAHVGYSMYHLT

Results are given in words; binding and its absence hold for the method and conditions named. In cells and extracts the contact can be indirect. Some results given as binding are weak or reduced against the parent protein; the word gives no strength.

In assay [1] the target is GST-PAX9 (wild type) (human) (UniProt P55771). The assay can be described thus: pull-down.
Assay [2] addresses GST-PAX9 mutant (p.Cys112Trp, c.336C>G) (human) (UniProt P55771). The assay can be described thus: pull-down.

Consider FLAG-MSX1 (from UniProt P28360 1-303), for which the binding result in assay [1] is “binds”; in assay [2], “binds weakly”.
